No constants are given. Whether binding was seen depends on the method and setting. In cells and extracts the contact can be indirect. Some binding calls cover weakened binding; strength is not graded here. For some of these results: Sequences can lack the tags named with a protein.

Chains of the proteins cited; added tags and fusions are not shown.
UniProt P25095: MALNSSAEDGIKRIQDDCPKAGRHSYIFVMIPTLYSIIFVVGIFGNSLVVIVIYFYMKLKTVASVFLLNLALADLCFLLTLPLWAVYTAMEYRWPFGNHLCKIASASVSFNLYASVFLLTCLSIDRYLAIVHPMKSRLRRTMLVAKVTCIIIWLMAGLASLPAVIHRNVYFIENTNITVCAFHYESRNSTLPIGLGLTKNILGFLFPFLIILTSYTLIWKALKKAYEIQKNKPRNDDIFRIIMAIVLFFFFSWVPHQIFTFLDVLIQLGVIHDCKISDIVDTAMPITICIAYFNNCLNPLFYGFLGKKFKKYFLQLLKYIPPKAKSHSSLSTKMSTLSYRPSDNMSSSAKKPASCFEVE
UniProt P49407: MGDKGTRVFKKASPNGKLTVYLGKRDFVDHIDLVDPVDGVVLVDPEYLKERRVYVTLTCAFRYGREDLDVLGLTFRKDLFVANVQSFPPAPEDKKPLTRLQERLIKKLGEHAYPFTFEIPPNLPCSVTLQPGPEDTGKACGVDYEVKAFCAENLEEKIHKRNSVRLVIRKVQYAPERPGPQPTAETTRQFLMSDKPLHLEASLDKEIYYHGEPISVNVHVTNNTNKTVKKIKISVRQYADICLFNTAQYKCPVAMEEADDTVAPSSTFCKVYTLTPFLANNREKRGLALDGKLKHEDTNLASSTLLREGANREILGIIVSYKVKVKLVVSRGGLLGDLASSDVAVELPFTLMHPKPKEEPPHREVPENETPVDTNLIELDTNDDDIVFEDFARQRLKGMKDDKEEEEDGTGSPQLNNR

The values that follow come from publication PMC5309860 (2017).

One assay concerns the target T1, TRPC3-GFP 334–848 (UniProt Q13507).
T1 sequence: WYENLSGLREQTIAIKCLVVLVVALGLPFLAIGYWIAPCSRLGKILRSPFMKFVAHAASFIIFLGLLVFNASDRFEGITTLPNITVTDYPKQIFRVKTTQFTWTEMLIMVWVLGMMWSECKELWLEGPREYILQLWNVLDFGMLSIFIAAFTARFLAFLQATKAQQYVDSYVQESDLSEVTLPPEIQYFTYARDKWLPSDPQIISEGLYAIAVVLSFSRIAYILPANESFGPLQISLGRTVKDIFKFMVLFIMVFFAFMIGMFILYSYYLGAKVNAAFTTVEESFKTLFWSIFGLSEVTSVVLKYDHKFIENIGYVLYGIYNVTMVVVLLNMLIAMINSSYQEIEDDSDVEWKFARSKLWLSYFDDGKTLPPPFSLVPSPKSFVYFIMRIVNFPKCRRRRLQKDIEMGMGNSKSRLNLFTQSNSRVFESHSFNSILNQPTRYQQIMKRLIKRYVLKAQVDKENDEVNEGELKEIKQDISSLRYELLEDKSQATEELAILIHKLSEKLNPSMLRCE
Description: co-IP; HEK293 cells co-transfected with Flag-AT1R-cherry, TRPC3-GFP (WT/truncations) and HA-β-arrestin-1 (WT/truncations/mutants); starved 12 h, stimulated 1 min with AngII (100 nM), TRV120055 (30 nM) or TRV120027 (100 nM); lysates precipitated with antibody-conjugated beads overnight at 4 °C, western ….

Another assay addresses T2, TRPC3-GFP 1–790 (UniProt Q13507).
T2 sequence: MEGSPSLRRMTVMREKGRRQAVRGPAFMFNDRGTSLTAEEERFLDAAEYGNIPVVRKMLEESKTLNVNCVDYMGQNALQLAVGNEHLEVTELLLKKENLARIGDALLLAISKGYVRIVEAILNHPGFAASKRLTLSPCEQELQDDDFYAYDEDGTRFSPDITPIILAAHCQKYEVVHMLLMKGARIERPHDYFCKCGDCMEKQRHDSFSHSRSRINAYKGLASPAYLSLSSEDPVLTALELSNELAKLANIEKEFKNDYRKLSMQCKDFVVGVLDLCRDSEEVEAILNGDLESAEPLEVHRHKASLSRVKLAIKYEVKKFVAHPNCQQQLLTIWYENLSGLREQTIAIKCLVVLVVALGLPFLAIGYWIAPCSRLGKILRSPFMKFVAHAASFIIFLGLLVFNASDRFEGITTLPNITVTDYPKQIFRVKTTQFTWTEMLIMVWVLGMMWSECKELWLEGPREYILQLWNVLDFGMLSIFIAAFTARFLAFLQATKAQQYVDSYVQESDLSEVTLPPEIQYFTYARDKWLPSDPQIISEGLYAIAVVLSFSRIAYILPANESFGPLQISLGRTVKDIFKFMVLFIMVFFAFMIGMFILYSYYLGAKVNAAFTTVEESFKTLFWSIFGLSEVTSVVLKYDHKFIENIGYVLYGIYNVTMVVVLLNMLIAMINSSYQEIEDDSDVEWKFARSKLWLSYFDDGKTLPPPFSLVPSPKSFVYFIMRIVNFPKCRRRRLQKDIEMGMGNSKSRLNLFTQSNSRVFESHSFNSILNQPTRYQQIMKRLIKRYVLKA
Described as above.

For a further assay, the target named is T3, TRPC3-GFP 1–759 (UniProt Q13507).
T3 sequence: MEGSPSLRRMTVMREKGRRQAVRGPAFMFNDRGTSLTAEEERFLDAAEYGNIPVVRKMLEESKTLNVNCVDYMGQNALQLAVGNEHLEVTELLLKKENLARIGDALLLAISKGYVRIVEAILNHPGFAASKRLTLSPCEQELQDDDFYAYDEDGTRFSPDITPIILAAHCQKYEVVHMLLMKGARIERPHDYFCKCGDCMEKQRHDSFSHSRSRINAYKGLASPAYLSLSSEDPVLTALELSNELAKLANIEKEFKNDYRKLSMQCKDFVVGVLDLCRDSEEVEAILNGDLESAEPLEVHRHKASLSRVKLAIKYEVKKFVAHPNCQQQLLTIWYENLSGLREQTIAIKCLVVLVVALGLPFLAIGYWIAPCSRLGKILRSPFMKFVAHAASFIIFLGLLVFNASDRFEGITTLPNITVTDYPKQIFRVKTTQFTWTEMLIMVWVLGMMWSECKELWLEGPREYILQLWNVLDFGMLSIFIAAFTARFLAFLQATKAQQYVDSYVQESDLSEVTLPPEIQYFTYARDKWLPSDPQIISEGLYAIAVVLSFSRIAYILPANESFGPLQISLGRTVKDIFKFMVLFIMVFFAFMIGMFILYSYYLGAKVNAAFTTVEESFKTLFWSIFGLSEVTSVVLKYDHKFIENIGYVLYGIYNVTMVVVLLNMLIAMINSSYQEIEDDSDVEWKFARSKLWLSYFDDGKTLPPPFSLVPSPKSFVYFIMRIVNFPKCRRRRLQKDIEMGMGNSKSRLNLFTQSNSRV
The assay is described as above.

For a further assay, the target named is Flag-AT1R-cherry (UniProt P25095). Description: co-IP; sequential: HEK293 cells with Flag-AT1R-cherry, HA-β-arrestin-1 and TRPC3-GFP, TRV120027 (100 nM) or vehicle 1 min; plasma membrane fractions; anti-Flag M2 agarose, elution with 3*Flag peptide, then anti-HA or anti-GFP beads; western blot.

With “HA-β-arrestin-1 (wild type) (from UniProt P49407 1-418)”, the binding result with TRPC3-GFP 334–848 is on record as “binds”; with TRPC3-GFP 1–790, “binds”; with TRPC3-GFP 1–759, “no binding”; with Flag-AT1R-cherry it was “binds”.
